Data taken from patent US6461610B1, “Methods for modifying cell motility using factor VIIa or inactivated factor VIIa” (Novo Nordisk A/S, priority 1997, dated 2002).
At least one compound was matched to its structure with a doubt left.

System: human foreskin fibroblasts AG1523
Test: Chemotaxis assay, modified Boyden chamber, PDGF-BB induced migration of fibroblasts
Assay type: cell-based
Details: 30 min pretreatment; 100 nM FVIIa; 0.1 ng/ml PDGF-BB
Method: Chemotaxis assay. The migration response of fibroblasts was assayed by means of the leading front technique in a modified Boyden chamber, as previously described (Nister et al., Cell 52, 791-799 (1988); Siegbahn et al. J. Clin. Invest. 85, 916-920 (1990)). Micropore filters (pore size 8 μm) were coated with a solution of type-i collagen at room temperature over night. The filters were air dried for 30 minutes immediately before use.
Human foreskin fibroblasts AG1523 were grown to confluence in Eagle's MEM supplemented with 10% FBS. The cells were detached by trypsinization (2.5 mg/ml for 10 minutes at 37° C.) and suspended in Eagle's MEM with 10% FBS. […] Migration was measured as the distance of the two furthest migrating fibroblast nuclei of one high-power field (12.5×24) in focus. The migration distance in each filter was calculated as the mean of the readings of at least three different parts of the filter. […]
Fibroblasts expressing active TF (FIG. 11) were incubated with 100 nM of FVIIa and seeded in the upper part of the modified Boyden chamber; while media containing 10% FBS and PDGF-BB at different concentrations were added below the […] micropore filter. The migration of the cells under conditions where medium containing 10% FBS without PDGF-BB was added below the filter was used as a measure of random migration, and calculated as 100% migration.

O=c1cc(N2CCOCC2)oc2c(-c3ccccc3)cccc12 [LY294002]
effect of inhibitor on FVIIa/TF hyperchemotactic response to PDGF-BB: unaffected
